Drawing on the supplement of paper PMC10849652, this text covers log2 fold change for 39 targets.

Amino acid sequences for entries named in this document (tags omitted). A change or cut given only in a name is not applied to a line headed by its entry.
UniProt Q9NXG2: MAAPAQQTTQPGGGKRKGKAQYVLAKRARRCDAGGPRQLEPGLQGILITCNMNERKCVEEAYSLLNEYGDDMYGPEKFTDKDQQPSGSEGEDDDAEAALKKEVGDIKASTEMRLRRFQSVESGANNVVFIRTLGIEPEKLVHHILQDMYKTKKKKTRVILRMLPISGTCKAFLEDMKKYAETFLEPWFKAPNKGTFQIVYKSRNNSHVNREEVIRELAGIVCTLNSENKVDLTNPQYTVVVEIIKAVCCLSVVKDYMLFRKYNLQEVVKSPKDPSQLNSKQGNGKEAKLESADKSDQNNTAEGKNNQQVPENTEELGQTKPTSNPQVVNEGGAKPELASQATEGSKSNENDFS
UniProt P15923: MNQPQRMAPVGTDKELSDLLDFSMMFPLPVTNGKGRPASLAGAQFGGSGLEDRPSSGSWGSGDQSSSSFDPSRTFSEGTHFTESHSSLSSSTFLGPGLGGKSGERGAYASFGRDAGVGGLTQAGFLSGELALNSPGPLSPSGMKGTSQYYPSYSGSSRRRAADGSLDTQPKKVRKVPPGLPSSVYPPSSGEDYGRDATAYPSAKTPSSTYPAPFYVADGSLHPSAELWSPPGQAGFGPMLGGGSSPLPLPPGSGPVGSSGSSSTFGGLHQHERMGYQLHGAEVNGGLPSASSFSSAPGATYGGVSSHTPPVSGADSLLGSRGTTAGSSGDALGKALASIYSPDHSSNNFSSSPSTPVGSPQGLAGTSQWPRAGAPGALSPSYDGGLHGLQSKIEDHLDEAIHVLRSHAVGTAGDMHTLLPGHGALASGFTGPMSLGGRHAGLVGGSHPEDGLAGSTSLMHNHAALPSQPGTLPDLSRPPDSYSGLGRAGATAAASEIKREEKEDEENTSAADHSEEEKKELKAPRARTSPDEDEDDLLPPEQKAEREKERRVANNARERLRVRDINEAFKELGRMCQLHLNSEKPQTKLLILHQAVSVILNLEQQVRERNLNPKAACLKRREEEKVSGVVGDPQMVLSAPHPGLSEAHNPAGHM
UniProt Q03167: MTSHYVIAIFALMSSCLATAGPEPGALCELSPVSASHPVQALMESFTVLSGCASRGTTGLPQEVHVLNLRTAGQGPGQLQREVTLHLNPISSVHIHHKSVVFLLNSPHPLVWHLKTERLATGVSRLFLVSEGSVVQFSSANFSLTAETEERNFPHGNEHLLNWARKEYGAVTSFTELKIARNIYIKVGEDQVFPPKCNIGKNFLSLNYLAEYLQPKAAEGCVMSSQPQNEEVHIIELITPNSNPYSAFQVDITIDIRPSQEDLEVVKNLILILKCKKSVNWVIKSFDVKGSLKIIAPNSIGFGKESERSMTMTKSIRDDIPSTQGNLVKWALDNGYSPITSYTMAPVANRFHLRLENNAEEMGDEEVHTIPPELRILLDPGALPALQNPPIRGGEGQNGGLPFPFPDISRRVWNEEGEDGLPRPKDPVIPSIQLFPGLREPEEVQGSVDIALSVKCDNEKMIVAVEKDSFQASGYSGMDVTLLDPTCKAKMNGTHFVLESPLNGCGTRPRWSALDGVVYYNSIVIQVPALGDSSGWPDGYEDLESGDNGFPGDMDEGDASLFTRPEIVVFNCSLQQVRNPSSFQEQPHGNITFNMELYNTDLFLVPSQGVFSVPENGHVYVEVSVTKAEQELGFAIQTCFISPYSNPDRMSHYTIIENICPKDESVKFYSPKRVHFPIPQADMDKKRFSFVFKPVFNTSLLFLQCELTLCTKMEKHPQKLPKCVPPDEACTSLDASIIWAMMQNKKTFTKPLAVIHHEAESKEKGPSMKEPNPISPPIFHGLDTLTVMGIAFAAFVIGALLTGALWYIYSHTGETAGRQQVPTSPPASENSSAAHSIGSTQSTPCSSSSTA
UniProt Q86W42: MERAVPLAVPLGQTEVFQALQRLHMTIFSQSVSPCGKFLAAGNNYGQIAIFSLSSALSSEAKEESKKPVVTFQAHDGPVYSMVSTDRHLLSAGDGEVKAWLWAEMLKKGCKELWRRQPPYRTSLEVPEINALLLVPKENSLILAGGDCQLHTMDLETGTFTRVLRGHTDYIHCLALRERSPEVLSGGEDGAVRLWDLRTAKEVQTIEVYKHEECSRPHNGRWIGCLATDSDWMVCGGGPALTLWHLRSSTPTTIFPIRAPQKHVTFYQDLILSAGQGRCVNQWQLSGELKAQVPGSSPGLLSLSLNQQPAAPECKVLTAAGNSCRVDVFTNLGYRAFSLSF
UniProt Q99426: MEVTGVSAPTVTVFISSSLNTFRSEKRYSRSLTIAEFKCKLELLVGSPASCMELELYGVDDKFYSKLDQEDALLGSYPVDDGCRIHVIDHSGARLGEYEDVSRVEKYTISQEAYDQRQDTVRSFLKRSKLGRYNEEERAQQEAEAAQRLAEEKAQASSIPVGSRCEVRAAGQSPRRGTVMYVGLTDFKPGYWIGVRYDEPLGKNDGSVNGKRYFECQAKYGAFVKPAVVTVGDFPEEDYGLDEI
UniProt Q9NPL8: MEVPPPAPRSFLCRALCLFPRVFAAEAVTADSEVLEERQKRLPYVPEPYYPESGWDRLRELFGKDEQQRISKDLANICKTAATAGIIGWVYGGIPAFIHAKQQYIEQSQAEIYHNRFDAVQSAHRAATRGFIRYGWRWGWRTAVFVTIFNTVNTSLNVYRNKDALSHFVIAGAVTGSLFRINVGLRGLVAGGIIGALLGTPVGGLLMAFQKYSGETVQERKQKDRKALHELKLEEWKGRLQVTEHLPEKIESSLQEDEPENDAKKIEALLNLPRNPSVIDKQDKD
UniProt Q8NFU7: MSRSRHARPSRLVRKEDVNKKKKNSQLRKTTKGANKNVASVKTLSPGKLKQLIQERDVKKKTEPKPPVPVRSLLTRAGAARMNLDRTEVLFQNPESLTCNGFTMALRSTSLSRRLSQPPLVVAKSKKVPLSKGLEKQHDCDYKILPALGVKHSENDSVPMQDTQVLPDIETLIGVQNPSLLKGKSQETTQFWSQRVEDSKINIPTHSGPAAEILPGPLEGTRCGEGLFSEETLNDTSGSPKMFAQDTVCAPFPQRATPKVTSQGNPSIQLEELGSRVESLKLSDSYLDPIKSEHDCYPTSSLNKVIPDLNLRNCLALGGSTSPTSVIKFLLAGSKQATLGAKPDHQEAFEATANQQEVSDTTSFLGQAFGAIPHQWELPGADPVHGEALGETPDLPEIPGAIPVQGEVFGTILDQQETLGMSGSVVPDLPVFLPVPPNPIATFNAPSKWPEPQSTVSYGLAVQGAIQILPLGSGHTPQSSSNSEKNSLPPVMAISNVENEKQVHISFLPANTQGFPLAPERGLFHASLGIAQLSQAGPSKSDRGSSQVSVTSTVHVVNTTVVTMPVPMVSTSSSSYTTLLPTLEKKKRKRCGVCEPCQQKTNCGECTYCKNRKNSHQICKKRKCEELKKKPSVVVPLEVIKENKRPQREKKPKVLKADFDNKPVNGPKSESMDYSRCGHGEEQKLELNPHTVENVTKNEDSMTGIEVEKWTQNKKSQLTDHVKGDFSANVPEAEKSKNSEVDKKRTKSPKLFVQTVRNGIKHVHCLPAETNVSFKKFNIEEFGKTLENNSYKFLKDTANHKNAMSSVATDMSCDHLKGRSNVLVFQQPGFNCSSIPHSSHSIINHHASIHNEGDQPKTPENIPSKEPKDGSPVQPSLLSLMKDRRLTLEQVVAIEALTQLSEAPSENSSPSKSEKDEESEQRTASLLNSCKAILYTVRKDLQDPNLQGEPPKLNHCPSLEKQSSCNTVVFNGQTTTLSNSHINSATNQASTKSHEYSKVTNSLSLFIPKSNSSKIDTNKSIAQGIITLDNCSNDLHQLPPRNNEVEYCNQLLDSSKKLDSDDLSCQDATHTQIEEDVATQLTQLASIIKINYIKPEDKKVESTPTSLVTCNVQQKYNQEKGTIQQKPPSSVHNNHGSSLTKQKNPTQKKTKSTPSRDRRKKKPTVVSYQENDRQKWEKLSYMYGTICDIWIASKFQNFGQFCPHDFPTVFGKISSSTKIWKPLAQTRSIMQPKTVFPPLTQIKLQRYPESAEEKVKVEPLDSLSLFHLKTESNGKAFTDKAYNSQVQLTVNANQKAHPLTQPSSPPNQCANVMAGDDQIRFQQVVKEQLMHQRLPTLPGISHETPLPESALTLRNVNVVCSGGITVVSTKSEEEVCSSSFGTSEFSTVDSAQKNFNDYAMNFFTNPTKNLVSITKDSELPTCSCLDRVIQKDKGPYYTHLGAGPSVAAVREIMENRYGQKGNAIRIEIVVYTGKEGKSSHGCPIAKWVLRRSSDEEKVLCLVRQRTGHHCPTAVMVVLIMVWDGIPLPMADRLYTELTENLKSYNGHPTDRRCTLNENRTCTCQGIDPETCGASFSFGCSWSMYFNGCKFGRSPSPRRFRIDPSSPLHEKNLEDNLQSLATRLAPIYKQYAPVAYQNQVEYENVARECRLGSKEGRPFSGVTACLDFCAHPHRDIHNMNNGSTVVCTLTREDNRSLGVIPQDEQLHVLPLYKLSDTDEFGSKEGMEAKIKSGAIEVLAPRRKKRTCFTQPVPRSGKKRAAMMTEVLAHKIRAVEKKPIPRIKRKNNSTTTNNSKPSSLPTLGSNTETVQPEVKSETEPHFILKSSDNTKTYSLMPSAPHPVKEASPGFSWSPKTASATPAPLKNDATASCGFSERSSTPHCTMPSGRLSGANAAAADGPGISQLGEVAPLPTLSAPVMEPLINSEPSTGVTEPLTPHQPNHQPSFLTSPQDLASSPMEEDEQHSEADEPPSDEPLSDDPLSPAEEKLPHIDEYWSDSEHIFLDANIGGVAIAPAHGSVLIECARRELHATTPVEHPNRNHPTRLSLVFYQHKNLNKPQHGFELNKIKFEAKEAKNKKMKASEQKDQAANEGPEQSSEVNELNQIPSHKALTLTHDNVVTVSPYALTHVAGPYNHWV
UniProt Q12788: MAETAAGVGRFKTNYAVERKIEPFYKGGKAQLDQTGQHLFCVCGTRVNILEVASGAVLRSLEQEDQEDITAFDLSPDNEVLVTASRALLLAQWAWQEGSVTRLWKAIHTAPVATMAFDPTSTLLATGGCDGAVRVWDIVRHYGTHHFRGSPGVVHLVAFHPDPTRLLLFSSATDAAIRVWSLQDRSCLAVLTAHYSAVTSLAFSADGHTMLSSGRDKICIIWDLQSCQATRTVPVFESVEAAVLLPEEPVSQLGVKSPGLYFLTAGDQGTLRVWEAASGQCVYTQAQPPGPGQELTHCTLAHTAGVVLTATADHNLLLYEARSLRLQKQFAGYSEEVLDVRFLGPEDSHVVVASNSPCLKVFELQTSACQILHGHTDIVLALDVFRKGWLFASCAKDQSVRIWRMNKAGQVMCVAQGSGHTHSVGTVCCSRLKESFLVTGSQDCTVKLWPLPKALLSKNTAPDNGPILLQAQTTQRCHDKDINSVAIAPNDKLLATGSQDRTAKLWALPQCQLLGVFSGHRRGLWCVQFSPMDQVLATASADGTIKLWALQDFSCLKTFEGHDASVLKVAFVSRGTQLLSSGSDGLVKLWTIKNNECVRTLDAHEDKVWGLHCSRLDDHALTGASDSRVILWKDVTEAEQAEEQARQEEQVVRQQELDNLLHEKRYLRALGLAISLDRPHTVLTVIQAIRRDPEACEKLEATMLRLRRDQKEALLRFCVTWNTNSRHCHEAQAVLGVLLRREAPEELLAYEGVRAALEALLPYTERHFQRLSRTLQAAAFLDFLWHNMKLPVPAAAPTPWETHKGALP
UniProt Q96BS2: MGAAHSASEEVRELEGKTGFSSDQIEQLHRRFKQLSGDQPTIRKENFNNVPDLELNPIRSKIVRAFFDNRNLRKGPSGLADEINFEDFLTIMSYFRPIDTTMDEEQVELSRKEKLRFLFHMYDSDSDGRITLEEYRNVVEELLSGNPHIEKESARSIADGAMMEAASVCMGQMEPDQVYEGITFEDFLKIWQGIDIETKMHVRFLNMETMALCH
UniProt Q99081: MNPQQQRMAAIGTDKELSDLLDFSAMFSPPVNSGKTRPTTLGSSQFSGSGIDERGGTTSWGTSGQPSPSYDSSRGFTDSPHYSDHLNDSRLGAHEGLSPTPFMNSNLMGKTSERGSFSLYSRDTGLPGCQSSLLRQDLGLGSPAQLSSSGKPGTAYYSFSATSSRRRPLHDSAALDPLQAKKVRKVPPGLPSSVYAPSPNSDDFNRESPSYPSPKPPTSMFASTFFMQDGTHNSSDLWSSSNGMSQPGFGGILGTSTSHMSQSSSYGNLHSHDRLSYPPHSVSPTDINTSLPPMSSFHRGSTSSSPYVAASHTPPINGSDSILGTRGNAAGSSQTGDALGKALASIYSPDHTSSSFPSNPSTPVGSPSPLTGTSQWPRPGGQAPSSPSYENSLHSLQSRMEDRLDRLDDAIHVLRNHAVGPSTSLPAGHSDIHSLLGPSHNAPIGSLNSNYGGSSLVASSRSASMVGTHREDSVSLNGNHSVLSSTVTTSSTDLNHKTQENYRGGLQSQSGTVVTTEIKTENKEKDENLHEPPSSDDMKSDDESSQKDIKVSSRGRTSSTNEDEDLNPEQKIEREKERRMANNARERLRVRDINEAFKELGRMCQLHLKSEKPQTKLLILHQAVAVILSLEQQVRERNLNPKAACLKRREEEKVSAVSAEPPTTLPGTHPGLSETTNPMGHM

The other results are listed elsewhere or left out.

Compound in one assay: C1=CC2=NC=CN=C2C=C1/C=C/3\C(=O)NC(=O)S3
As to the kind of experiment: log2 fold change, soluble protein after heating vs DMSO (PISA); higher = thermal stabilisation; K562 cells, 10 uM, 30 min; active = over 0.2 and 3.5 SD of the protein, either way, in both replicates (recomputed). Summed up:
(§1)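 Thermal stability values are relative to control samples and come from duplicates. They are expressed as log2 fold changes. For measurement, K562 cells (2×10^6 cells/mL) received 10 μM compound for 30 min, and aliquots were heated for 3 min over 48°C-58°C, pooled, and extracted at 4°C in PBS with 0.5% NP-40. Soluble protein, the supernatant after 21,000xg for 90 min, was quantified by TMTpro 16plex LC-MS/MS with equalised channel sums.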
Turning to TJAP1 (UniProt Q5JTD0), the log2 fold change was inactive: 0.022.

Consider TCEA1 (UniProt P23193), for which the log2 fold change was inactive: 0.003.

Turning to TIMM50 isoform 2 (UniProt Q3ZCQ8), the log2 fold change was inactive: 0.001.

As to THUMPD1 (UniProt Q9NXG2), the log2 fold change was inactive: 0.012.

In the case of THBS1 (UniProt P07996), the log2 fold change is inactive: -0.035.

Consider TCIRG1 (UniProt Q13488), for which the log2 fold change was inactive: 0.014.

With TCF3 (UniProt P15923), the log2 fold change was inactive: 0.027.

On to THOC1 (UniProt Q96FV9), for which the log2 fold change is inactive: -0.061.

In the case of THOC2 (UniProt Q8NI27), the log2 fold change was inactive: 0.027.

Consider THNSL1 (UniProt Q8IYQ7), for which the log2 fold change was inactive: -0.007.

In the case of TBC1D22B (UniProt Q9NU19), the log2 fold change was inactive: 0.07.

With TLCD4 (UniProt Q96MV1), the log2 fold change was inactive: -0.003.

THOC7 (UniProt Q6I9Y2): the log2 fold change is inactive: -0.038.

For TKFC (UniProt Q3LXA3), the log2 fold change was inactive: -0.001.

Turning to TGFBR3 (UniProt Q03167), the log2 fold change was inactive: -0.016.

On to TKT isoform 2 (UniProt P29401), for which the log2 fold change was inactive: -0.004.

Consider TDRKH (UniProt Q9Y2W6), for which the log2 fold change was inactive: -0.069.

Regarding TGOLN2 isoform 7 (UniProt O43493), the log2 fold change is inactive: 0.006.

TBCC (UniProt Q15814): the log2 fold change is inactive: 0.006.

With TF (UniProt P02787), the log2 fold change is inactive: -0.053.

As for TDP2 isoform 2 (UniProt O95551), the log2 fold change is inactive: 0.028.

In the case of TERF2 (UniProt Q15554), the log2 fold change was inactive: 0.032.

Turning to THOC6 (UniProt Q86W42), the log2 fold change is inactive: -0.013.

Regarding TBCB (UniProt Q99426), the log2 fold change is inactive: 0.055.

Turning to TIMMDC1 (UniProt Q9NPL8), the log2 fold change was inactive: 0.02.

Regarding TBCE (UniProt Q15813), the log2 fold change was inactive: 0.029.

In the case of TK2 isoform 6 (UniProt O00142), the log2 fold change was inactive: 0.335.

On to TIMM23 (UniProt O14925), for which the log2 fold change is inactive: 0.078.

As to TET1 (UniProt Q8NFU7), the log2 fold change is inactive: -0.008.

TCP1 (UniProt P17987): the log2 fold change was inactive: -0.017.

In the case of TBL1X (UniProt O60907), the log2 fold change is inactive: 0.032.

For the target TFB1M (UniProt Q8WVM0), the log2 fold change was inactive: 0.017.

TBL3 (UniProt Q12788): the log2 fold change was inactive: -0.026.

As for TIMM8B (UniProt Q9Y5J9), the log2 fold change was inactive: 0.077.

As for TBC1D4 (UniProt O60343), the log2 fold change was inactive: 0.018.

Regarding TGM2 (UniProt P21980), the log2 fold change was inactive: 0.01.

On to TBL1XR1 (UniProt Q9BZK7), for which the log2 fold change is inactive: 0.053.

In the case of TESC (UniProt Q96BS2), the log2 fold change is inactive: 0.023.

As for TCF12 isoform 3 (UniProt Q99081), the log2 fold change is inactive: 0.011.

Compound in the next assay: C1=CC=C(C=C1)C2=NC(=C(N2)C3=CC=NC=C3)C4=CC(=C(C=C4)Cl)O
Described as above. A digest of the protocol: as §1
TJAP1 (UniProt Q5JTD0): the log2 fold change is inactive: 0.015.

With TCEA1 (UniProt P23193), the log2 fold change is inactive: 0.001.

On to TIMM50 isoform 2 (UniProt Q3ZCQ8), for which the log2 fold change was inactive: -0.016.

Turning to THUMPD1 (UniProt Q9NXG2), the log2 fold change is inactive: -0.02.

Take THBS1 (UniProt P07996): the log2 fold change is inactive: -0.088.

Take TCIRG1 (UniProt Q13488): the log2 fold change was inactive: -0.231.

In the case of TCF3 (UniProt P15923), the log2 fold change was inactive: 0.007.

THOC1 (UniProt Q96FV9): the log2 fold change is inactive: 0.014.

As to THOC2 (UniProt Q8NI27), the log2 fold change is inactive: -0.039.

For THNSL1 (UniProt Q8IYQ7), the log2 fold change was inactive: 0.017.

Turning to TBC1D22B (UniProt Q9NU19), the log2 fold change was inactive: 0.107.

For the target TLCD4 (UniProt Q96MV1), the log2 fold change is inactive: 0.066.

On to THOC7 (UniProt Q6I9Y2), for which the log2 fold change was inactive: -0.094.

TKFC (UniProt Q3LXA3): the log2 fold change is inactive: -0.012.

In the case of TGFBR3 (UniProt Q03167), the log2 fold change is inactive: 0.104.

With TKT isoform 2 (UniProt P29401), the log2 fold change is inactive: -0.046.

As to TDRKH (UniProt Q9Y2W6), the log2 fold change was inactive: 0.098.

As to TGOLN2 isoform 7 (UniProt O43493), the log2 fold change is inactive: 0.067.

On to TBCC (UniProt Q15814), for which the log2 fold change is inactive: 0.001.

Take TF (UniProt P02787): the log2 fold change is inactive: 0.033.

Regarding TDP2 isoform 2 (UniProt O95551), the log2 fold change was inactive: -0.055.

As to TERF2 (UniProt Q15554), the log2 fold change was inactive: 0.078.

Consider THOC6 (UniProt Q86W42), for which the log2 fold change is inactive: -0.007.

In the case of TBCB (UniProt Q99426), the log2 fold change is inactive: -0.002.

Take TIMMDC1 (UniProt Q9NPL8): the log2 fold change is inactive: 0.082.

On to TBCE (UniProt Q15813), for which the log2 fold change was inactive: 0.069.

Turning to TK2 isoform 6 (UniProt O00142), the log2 fold change is inactive: -0.014.

Regarding TIMM23 (UniProt O14925), the log2 fold change is inactive: 0.105.

As for TET1 (UniProt Q8NFU7), the log2 fold change is inactive: 0.116.

For TCP1 (UniProt P17987), the log2 fold change was inactive: -0.012.

TBL1X (UniProt O60907): the log2 fold change was inactive: -0.046.

With TFB1M (UniProt Q8WVM0), the log2 fold change is inactive: 0.003.

For TBL3 (UniProt Q12788), the log2 fold change was inactive: -0.019.

With TIMM8B (UniProt Q9Y5J9), the log2 fold change is inactive: 0.036.

With TBC1D4 (UniProt O60343), the log2 fold change was inactive: -0.008.

In the case of TGM2 (UniProt P21980), the log2 fold change is inactive: 0.038.

On to TBL1XR1 (UniProt Q9BZK7), for which the log2 fold change is inactive: 0.019.

For the target TESC (UniProt Q96BS2), the log2 fold change is inactive: 0.001.

Consider TCF12 isoform 3 (UniProt Q99081), for which the log2 fold change is inactive: 0.123.
